{"source": "PubChem BioAssay AID540256", "about": "(National Center for Advancing Translational Sciences (NCATS), 2011)", "note": "About 3,700 (1.2%) of roughly 300,000 compounds were called active. This list was built around the results that the source calls inconclusive (neither active nor inactive); the mix of calls is not that of the screen. Calls follow the shape of the full dose curve; tested in HEK293 cells. A potency beside an inconclusive call is a rough fit, not a confirmed value. Potency is read from the fitted curve at half-maximal effect.", "data": [{"assay": "qHTS for Inhibitors of binding or entry into cells for Lassa Virus; also: nearly all actives have a fitted effect of over 50% in size", "details": "Lassa virus pseudotype entry inhibition, cell reporter; series mostly up to 37.9 µM", "values": [{"compound": "C1=C(c2ccccc2)Nc2ccccc2N=C1c1ccccc1", "Potency": "inconclusive: 1.3 µM [activator, full curve, poor fit]"}, {"compound": "CCOC(=O)c1nnn(CC(=O)Nc2cc(C)cc(C)c2)c1C(=O)OCC", "Potency": "inconclusive: 2 µM [activator, full curve]"}, {"compound": "Cc1nc2c(-c3ccccc3)c(C)nn2c(C)c1CCC(=O)NCc1ccc(Cl)cc1", "Potency": "inactive"}, {"compound": "COc1ccccc1-n1nnnc1SCc1ccccc1", "Potency": "inconclusive: 10 µM [inhibitor, partial curve, poor fit]"}, {"compound": "O=c1cc(/C=C/c2ccccc2)oc2ccccc12", "Potency": "inconclusive: 32.6 µM [inhibitor, single point]"}, {"compound": "Cc1cc(NC(=O)/C=C/C(=O)N(c2ccccc2C)C(C(=O)NC2CCCC2)c2ccc(F)cc2)no1", "note": "(centres undefined)", "Potency": "inconclusive: 18.3 µM [inhibitor, single point]"}, {"compound": "CCOC(=O)c1c(N)n(C2CC(C)(C)NC(C)(C)C2)c2nc3ccccc3nc12", "Potency": "inconclusive: 1.83 µM [inhibitor, partial curve, poor fit]"}, {"compound": "COc1ccc(Nc2nc(C)nc3sc4c(c23)CCC4)cc1O", "Potency": "inconclusive: 2.24 µM [inhibitor, partial curve, poor fit]"}, {"compound": "O=C(CN1CCC(n2nnc3cc(C(F)(F)F)ccc32)CC1)Nc1ccc2c(c1)OCCO2", "Potency": "inconclusive: 9.2 µM [inhibitor, partial curve, poor fit]"}, {"compound": "CCOC(=O)c1c(C)[nH]c(C(=O)Cn2c(=O)oc3ccccc32)c1C", "Potency": "inconclusive: 0.631 µM [activator, partial curve, poor fit]"}, {"compound": "N#CCCn1cc(C(=O)NCc2ccccc2)c(-c2cccs2)n1", "Potency": "inactive"}, {"compound": "O=C(O)CCC(NC(=O)c1cncc(O)c1)C(=O)O", "note": "(centres undefined)", "Potency": "inactive"}, {"compound": "COc1ccc(NC(=O)CSc2nnnn2C2CCCC2)cc1", "Potency": "inactive"}, {"compound": "N#Cc1ccccc1Sc1ccccc1C(=O)OCc1nnc(-c2ccccc2)o1", "Potency": "inconclusive: 23.1 µM [inhibitor, single point]"}, {"compound": "CSc1nc(N)nc(SCC(=O)Nc2cccc(F)c2)c1C#N", "Potency": "inconclusive: 29.1 µM [inhibitor, single point]"}, {"compound": "CCN(c1ccccc1)S(=O)(=O)c1ccc2c(c1)CCCN2C(C)=O", "Potency": "inconclusive: 5.62 µM [inhibitor, single point]"}, {"compound": "CS(=O)(=O)Nc1ccc(C(=O)NCCSCc2ccco2)cc1", "Potency": "inactive"}, {"compound": "Cc1ccc(OCCCC(=O)NNC(=O)c2ccccn2)cc1", "Potency": "inconclusive: 12.6 µM [inhibitor, single point]"}, {"compound": "Cc1ccc(C(=O)O/N=C(\\N)c2cccnc2)cc1[N+](=O)[O-]", "Potency": "inconclusive: 2.91 µM [activator, partial curve, poor fit]"}]}]}
